Measurements taken from article PMC7309225, “Synthesis, Biodistribution, and Radiation Dosimetry of a Novel mGluR5 Radioligand: ^18F-AZD9272” (ACS Chemical Neuroscience, 2020).
Several values for one entry are separate records, joined by “and”; a condition that tells them apart may be missing. Equal entries are not always repeated.

System: mGluR5
Test: Brain PET in cynomolgus monkey (HRRT), VT by 2TC model and Logan GA
Type: in vivo
Procedure: Two male cynomolgus monkeys (NHP1: 5460 g and NHP2: 7080 g) were used in this study. […] Anesthesia was induced by intramuscular injection of ketamine hydrochloride (approximately 10 mg/kg) at AFL and maintained by intravenous infusion of ketamine (4 mg/kg/h) and xylazine (0.4 mg/kg/h) with a pump. The NHP head was immobilized with a fixation device. […] Heart rate, blood pressure, respiratory rate, and oxygen saturation were continuously monitored throughout the experiments. Fluid balance was maintained by continuous infusion of saline.
PET measurements were conducted using a High Resolution Research Tomograph (HRRT) PET scanner (Siemens Molecular Imaging, Knoxville, TN). […]
An automated blood sampling system (ABSS) was used to measure the continuous radioactivity for the first 3 min after the radioligand injection. Then, blood sampling was performed manually for the measurement of metabolism and radioactivity at 5, 15, 30, 60, 90, and 120 min after the injection. […]
As the main outcome measure, the total distribution volume (VT) defined as (K1/k2)(k3/k4 + 1) by the two tissue compartment (2TC) model and Logan graphical analysis (GA) was calculated with the metabolite corrected plasma radioactivity as the input function. […]

N#Cc1cc(F)cc(-c2nc(-c3ccc([18F])cn3)no2)c1 [^18F-AZD9272, 3-fluoro-5-(3-(5-[^18F]fluoropyridin-2-yl)-1,2,4-oxadiazol-5-yl)benzonitrile]
Bias of VT with shortened measurement (at 75 min, both 2TC and GA): ≤ 3%
VT by GA lower than VT by 2TC (per animal (two NHPs)): 11% and 6%
